This note sets out measurements from paper PMC11339177.

The chains behind the UniProt entries cited, without tags or fusion partners. Where a name states a change or a piece, a line headed by the entry shows the natural chain unless it says otherwise. Residues count along the entry.
UniProt Q14126, residues 50-1118: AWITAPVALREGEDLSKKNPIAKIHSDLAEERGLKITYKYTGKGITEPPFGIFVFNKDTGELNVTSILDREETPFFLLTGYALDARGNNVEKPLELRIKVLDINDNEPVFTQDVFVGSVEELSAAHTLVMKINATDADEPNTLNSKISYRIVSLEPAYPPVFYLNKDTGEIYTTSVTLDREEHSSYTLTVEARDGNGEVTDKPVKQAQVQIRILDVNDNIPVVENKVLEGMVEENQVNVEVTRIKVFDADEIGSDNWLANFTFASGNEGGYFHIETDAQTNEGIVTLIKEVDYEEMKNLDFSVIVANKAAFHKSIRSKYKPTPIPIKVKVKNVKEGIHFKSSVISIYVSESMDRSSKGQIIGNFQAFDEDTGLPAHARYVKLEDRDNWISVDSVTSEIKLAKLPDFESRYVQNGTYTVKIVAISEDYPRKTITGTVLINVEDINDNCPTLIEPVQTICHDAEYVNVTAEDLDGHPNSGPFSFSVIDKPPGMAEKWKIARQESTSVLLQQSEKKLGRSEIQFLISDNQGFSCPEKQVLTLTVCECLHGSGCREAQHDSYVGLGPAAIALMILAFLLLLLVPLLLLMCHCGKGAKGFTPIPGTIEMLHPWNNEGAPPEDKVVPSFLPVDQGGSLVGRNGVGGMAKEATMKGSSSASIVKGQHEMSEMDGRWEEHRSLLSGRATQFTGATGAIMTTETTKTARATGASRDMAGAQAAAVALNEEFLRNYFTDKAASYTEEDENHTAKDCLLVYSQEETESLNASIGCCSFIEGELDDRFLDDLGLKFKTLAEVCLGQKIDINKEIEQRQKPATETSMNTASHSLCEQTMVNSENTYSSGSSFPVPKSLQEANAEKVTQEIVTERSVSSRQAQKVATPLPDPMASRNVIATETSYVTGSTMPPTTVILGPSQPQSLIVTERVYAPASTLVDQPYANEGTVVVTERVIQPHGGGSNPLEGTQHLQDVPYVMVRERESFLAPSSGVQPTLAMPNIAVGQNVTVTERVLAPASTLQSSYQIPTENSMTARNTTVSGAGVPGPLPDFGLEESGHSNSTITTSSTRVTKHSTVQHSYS
UniProt P14780: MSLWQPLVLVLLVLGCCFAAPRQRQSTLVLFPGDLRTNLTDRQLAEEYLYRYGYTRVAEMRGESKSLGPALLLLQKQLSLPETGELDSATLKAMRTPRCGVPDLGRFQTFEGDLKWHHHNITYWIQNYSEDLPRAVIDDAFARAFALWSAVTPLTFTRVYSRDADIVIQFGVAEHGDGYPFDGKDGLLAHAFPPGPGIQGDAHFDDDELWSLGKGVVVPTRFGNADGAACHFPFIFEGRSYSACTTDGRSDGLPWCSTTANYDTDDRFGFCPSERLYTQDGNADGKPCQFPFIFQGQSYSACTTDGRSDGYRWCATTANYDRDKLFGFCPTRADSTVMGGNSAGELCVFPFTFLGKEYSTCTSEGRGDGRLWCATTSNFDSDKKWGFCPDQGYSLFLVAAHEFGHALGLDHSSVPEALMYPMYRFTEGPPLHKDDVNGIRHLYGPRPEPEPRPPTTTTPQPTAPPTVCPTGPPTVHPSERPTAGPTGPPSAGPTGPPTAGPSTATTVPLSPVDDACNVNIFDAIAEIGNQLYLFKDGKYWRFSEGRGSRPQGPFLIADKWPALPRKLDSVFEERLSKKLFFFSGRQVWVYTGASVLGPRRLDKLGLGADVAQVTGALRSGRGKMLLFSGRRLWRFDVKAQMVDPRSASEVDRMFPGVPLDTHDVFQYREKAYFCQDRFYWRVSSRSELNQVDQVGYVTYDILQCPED

Results are given in words; binding and its absence hold for the method and conditions named. In cells and extracts the contact can be indirect. Binding calls can cover weak binding; strength is not graded here.

This experiment deals with desmoglein-2 (DSG2), expressed from the plasmid DSG2-pEGFP-C1 (UniProt Q14126). Nature of the experiment: co-IP; immunoprecipitation of DSG2 protein from transfected cells (Pierce Classic Magnetic Bead IP/Co-IP Kit), eluate analysed by Western blot; cell line not stated. (A western blot detects proteins with antibodies after separation by electrophoresis.)

In the case of “matrix metallopeptidase 9 (MMP-9) (from UniProt P14780)”, the binding entry is recorded as “binds”.
